“And” between values parts separate entries of the source, which are not always exact repeats. Equal values may be shown once. At least one structure is not confirmed: it was looked up by name or label, or the drawing left a doubt. Some results were stated once for a whole list of compounds, not compound by compound.
Legend:
Assay type in all cases: cell-based
human α3β2α5 nAChR = human α3β2α5 nAChR (Homo sapiens, UniProt P17787+P30532+P32297, D398N)
[1] = target: human neuronal nicotinic AChR α3 and β2 subunits (Homo sapiens, UniProt P17787+P32297)
[2] = target: human neuronal nicotinic AChR α7 subunit (Homo sapiens, UniProt P36544)

Chains of the proteins cited; added tags and fusions are not shown. Lines headed by an entry give the natural chain unless they say otherwise; changes in a name come on top. Residues count along the entry.
UniProt P17787, 26-502: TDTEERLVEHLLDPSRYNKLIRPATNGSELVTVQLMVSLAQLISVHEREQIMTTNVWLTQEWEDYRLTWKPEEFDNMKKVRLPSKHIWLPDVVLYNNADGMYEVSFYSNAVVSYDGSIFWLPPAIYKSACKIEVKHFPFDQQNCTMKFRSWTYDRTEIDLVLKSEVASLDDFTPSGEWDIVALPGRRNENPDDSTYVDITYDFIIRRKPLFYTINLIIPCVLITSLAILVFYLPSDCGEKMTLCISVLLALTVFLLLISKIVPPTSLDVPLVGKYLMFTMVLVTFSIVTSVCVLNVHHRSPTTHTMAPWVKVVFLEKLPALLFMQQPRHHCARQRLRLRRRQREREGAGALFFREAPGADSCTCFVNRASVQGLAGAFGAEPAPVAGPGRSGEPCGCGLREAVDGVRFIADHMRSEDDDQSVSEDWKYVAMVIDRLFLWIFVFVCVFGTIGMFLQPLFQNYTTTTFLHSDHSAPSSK
UniProt P30532: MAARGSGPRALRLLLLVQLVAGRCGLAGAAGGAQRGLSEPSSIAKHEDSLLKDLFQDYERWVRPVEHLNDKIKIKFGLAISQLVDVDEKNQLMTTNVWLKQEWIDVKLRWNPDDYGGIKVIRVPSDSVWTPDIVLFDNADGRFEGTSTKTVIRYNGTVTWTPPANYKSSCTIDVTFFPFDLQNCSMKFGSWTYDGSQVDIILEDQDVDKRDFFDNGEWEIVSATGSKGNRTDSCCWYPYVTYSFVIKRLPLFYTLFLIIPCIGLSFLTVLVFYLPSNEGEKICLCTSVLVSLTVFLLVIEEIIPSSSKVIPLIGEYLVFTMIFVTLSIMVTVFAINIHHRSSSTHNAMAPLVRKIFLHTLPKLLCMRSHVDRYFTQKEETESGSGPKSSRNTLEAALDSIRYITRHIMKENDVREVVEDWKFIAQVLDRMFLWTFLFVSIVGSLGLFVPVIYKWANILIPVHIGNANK
UniProt P32297, 32-505: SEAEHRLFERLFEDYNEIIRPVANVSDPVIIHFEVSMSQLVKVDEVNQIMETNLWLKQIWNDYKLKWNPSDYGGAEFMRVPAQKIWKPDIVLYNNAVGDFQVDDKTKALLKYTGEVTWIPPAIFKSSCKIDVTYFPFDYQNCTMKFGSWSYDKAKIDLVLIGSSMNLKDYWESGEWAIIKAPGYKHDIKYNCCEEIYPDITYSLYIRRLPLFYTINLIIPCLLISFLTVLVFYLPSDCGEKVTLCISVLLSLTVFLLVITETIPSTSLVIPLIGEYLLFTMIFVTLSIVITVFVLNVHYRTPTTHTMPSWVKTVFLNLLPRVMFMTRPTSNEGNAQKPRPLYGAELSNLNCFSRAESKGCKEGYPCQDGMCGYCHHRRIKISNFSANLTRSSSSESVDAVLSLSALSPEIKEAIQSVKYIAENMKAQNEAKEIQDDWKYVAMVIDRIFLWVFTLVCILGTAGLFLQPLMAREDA
UniProt P36544, 23-502: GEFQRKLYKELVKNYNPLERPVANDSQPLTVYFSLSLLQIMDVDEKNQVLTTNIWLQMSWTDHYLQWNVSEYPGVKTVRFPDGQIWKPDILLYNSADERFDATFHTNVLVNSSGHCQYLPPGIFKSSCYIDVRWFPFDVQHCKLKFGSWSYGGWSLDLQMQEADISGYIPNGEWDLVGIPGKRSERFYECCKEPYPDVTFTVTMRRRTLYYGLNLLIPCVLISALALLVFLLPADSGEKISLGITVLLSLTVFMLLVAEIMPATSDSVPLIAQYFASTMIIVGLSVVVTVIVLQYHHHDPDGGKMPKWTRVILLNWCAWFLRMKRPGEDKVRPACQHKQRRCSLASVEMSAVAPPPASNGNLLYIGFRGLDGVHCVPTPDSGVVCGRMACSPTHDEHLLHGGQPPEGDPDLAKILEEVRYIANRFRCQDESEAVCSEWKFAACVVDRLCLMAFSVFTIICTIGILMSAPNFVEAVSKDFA

Compound: CC(=O)OCC[N+](C)(C)C [ACh, acetylcholine]
- desensitization kinetics of elicited currents, A3B2A5 cells versus A3B2 cells (human α3β2α5 nAChR): significantly slower
- Current Amplitude [1]: <10 nA
- Number of oocytes responding [1]: 2 of 9 and 0 of 9 and 13 of 16
- Number of oocytes responding [2]: 3 of 15 and 11 of 11
- inward currents in response to agonist [2]: displayed inward currents
